Measurements published in US11091517B2, “Peptide derivative and pharmaceutical composition containing same” (TOKUSHIMA UNIVERSITY, priority 2017, dated 2021).
Like-named read-outs stand apart in the source and are kept apart here. For some of these results: Part of at least one peptide drawing is inferred or uncertain, most often the ends. For some of these results: For at least one compound, name, drawing or mass did not settle the structure. *1 amine or outer side, *2 acyl side, *3 side chain or, on linkers, in order; H or OH if unused. Where a SMILES comes first, the peptide text is derived from it. Bridges are numbered along the chain shown (N, C = ends). NH(CH2)4NH = C(CCN[*:2])CN[*:1]

Protein sequences, listed by entry. Tags and fused reporters are not part of them. Residues count along the entry.
UniProt Q99623, 2-299 limits assumed: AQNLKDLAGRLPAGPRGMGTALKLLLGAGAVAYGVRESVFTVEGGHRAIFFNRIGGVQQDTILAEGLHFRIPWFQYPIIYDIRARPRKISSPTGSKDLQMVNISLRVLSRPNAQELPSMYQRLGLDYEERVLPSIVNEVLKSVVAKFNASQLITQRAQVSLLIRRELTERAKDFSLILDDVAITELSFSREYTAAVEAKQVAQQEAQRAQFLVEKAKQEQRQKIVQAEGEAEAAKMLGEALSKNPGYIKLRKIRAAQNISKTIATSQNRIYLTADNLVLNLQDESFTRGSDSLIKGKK

How the values were obtained:
MCF-7 cells = type: cell-based, human
MCF-10A cells = assay: Cell growth assay, mammary epithelial cell line MCF-10A; type: cell-based, human; settings: up to 10 μM, up to 96 hours
BIG3-PHB2 interaction = biological target: T1, BIG3-PHB2 interaction (Homo sapiens, UniProt Q99623); assay: Inhibition of BIG3-PHB2 interaction in MCF-7 cells (immunoprecipitation, Western blotting); type: cell-based; settings: 1 μM, 24 hours
T1 construct: endogenous in cells; host or cells: MCF-7
Procedure: (A, B) Inhibitory effect of double stapled ERAP No. 46 on BIG3-PHB2 interaction in MCF-7 cells was evaluated by Western blotting. […] Then, the cells were lysed, immunoprecipitation was performed using an anti-BIG3 antibody, and immunoblot analyses were performed using the antibodies indicated in the drawing. The binding inhibition rates are expressed as proportions to the band area for PHB2 in untreated cells which is set as 100.
For immunoblot analyses, after performing SDS-PAGE, the membranes blotted with proteins were blocked with 4% BlockAce solution (Dainippon Pharmaceutical, Osaka, Japan) for 3 hours and then incubated to react for 12 hours with antibodies against BIG3 (1:1,000) and PHB2 (1:1,000) (Abcam, Cambridge, UK). After allowing interaction with HRP-labeled secondary antibodies (anti-rat IgG-HRP for BIG3, 1:5,000; and anti-rabbit IgG-HRP for PHB2, 1:1,000) (Santa Cruz Biotechnology, Dallas, Tex., USA) for 1 hour, the blots were developed with the Enhanced Chemiluminescence (ECL) system (GE Healthcare, Buckinghamshire, UK) and scanned using the Image Reader LAS-3000 mini (Fujifilm, Tokyo, Japan). […]

SK-BR-3 cells = assay: Cell cycle analysis, SK-BR-3 cells; type: cell-based, human; settings: 5 μM, up to 96 hours
MDA-MB-231 cells = assay: Cell cycle analysis, MDA-MB-231 cells; type: cell-based, human; settings: 5 μM, up to 96 hours
[1] = test system: phosphorylation of PI3K, PKCα and PHB2 (Ser39); assay: Immunoblots of PI3K, PKCα and PHB2 phosphorylation in MCF-7 cells transfected with ESR1 mutant; type: cell-based, human; settings: 24 hours; MCF-7 cells transfected with ESR1 mutants

Q: How did the “suppression of estrogen-dependent growth” value (MCF-7 cells; 10 μM for 96 hours) turn out when `CSCC[C@H](NC(=O)[C@H](CCC(N)=O)NC(C)=O)C(=O)N[C@H]1CCC(=O)NCCCCNC(=O)CC[C@@H](C(=O)N[C@H]2CCC(=O)NCCCCNC(=O)CC[C@@H](C(=O)N[C@@H](CCCNC(=N)N)C(N)=O)NC(=O)[C@H](CCCNC(=N)N)NC(=O)[C@H](CC(C)C)NC(=O)[C@H](CCC(N)=O)NC2=O)NC(=O)[C@H](CC(C)C)NC(=O)[C@H](CC(=O)O)NC(=O)[C@H](CO)NC1=O` [double stapled ERAP No. 45] (Ac-QMESDLEEQLRER-NH2; linker 3-7, 8-12 via NH(CH2)4NH) was run?
A: The value was “almost complete suppressive effects”.

Q: And the “suppression of estrogen-dependent growth” value (MCF-7 cells; up to 1 μM)?
A: The value was “estrogen-dependent cell growth could hardly be suppressed”.

Q: With `CSCC[C@H](NC(=O)[C@H](CCC(N)=O)NC(C)=O)C(=O)N[C@H]1CCC(=O)NCCCCNC(=O)CC[C@@H](C(=O)N[C@@H](CC(C)C)C(=O)N[C@@H](CCC(N)=O)C(=O)N[C@H]2CCC(=O)NCCCCNC(=O)CC[C@@H](C(N)=O)NC(=O)[C@H](CCCNC(=N)N)NC(=O)[C@H](CCC(N)=O)NC(=O)[C@H](CCCNC(=N)N)NC2=O)NC(=O)[C@H](CC(C)C)NC(=O)[C@H](CC(=O)O)NC(=O)[C@H](CO)NC1=O` [double stapled ERAP No. 46] (Ac-QMESDLELQERQRE-NH2; linker 3-7, 10-14 via NH(CH2)4NH) as the compound, how does the “effect on MCF-10A cell growth” value (MCF-10A cells) read?
A: The value was “hardly any effects”.

Q: And the “inhibition of BIG3-PHB2 binding” value (BIG3-PHB2 interaction)?
A: Its value is “nearly completely inhibited”.

Q: What about the “effect on cell cycle” value (SK-BR-3 cells) of the same compound?
A: Its value is “G1-phase cell cycle arrest”.

Q: What about the “effect on cell cycle” value (MDA-MB-231 cells) of the same compound?
A: Its value is “S phase cell cycle arrest”.

Q: Which “phosphorylation of PKCα and PI3K in ESR1 mutant cells” value [1] does the source give for `COC[C@H]1OC(=O)c2coc3c2[C@@]1(C)C1=C(C3=O)[C@@H]2CCC(=O)[C@@]2(C)C[C@H]1OC(C)=O` [wortmannin] here?
A: The value was “nearly completely inhibited”.
